# In the supplement of paper PMC10849652:
# Sequences of proteins named here, by UniProt entry; tags and fusion partners are left off. A change or cut given only in a name is not applied to a line headed by its entry.
# UniProt P00167, whole entry, looked up: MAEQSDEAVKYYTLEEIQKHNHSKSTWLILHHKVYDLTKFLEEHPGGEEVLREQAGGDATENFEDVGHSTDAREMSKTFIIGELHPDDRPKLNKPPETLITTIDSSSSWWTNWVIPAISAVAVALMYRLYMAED
# UniProt Q6VVX0: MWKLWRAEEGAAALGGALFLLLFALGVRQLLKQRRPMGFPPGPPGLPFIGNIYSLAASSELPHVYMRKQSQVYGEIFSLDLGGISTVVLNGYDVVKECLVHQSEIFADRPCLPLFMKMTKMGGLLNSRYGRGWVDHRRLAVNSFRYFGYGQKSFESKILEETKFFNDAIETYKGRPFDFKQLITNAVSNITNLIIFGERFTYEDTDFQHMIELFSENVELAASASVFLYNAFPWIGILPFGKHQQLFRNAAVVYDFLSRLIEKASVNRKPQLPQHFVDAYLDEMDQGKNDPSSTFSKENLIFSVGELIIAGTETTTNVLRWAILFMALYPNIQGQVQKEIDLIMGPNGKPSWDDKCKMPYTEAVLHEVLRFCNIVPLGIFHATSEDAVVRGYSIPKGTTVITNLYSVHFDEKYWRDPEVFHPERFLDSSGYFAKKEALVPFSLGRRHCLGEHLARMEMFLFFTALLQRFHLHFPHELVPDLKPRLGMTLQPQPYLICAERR
# UniProt Q9NXE8: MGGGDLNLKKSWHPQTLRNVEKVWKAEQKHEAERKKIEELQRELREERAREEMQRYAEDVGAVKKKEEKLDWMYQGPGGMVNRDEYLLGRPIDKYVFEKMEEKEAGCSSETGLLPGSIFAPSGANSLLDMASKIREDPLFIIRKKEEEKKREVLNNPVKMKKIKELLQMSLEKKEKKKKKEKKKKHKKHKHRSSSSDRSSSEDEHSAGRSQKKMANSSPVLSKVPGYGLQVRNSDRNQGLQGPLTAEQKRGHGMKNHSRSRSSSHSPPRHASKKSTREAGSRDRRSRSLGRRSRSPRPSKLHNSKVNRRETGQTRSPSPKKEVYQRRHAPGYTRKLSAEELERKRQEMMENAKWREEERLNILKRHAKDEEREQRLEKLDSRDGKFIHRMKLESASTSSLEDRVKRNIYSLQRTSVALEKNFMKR
# UniProt Q9Y6A2: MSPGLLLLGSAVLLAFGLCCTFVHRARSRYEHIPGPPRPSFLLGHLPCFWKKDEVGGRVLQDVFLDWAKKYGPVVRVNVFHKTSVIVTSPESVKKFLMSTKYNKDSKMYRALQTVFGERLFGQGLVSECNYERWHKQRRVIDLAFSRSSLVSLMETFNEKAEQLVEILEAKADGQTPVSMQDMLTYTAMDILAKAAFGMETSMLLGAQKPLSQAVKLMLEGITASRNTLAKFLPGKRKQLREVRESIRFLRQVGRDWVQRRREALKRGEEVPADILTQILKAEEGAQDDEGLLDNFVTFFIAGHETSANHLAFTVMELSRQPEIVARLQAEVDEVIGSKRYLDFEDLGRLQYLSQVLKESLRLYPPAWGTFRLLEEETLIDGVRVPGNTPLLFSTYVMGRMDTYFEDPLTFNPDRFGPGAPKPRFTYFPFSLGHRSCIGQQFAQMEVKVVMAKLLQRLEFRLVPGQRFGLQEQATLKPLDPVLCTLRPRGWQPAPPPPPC
# UniProt P01036: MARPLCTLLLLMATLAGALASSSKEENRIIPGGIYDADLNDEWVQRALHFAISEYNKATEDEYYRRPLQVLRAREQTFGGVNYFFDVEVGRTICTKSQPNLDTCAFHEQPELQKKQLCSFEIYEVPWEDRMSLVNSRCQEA
# UniProt Q9H1C7: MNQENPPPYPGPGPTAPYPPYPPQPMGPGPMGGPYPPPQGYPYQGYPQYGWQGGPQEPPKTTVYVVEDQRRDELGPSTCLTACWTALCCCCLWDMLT
# UniProt Q9BTE1, whole entry, looked up: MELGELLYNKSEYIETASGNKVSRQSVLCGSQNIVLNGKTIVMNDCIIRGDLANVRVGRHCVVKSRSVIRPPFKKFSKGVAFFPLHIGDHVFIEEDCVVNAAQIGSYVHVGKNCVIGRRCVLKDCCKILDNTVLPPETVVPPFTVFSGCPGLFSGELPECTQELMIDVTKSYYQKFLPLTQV
# UniProt Q96C86: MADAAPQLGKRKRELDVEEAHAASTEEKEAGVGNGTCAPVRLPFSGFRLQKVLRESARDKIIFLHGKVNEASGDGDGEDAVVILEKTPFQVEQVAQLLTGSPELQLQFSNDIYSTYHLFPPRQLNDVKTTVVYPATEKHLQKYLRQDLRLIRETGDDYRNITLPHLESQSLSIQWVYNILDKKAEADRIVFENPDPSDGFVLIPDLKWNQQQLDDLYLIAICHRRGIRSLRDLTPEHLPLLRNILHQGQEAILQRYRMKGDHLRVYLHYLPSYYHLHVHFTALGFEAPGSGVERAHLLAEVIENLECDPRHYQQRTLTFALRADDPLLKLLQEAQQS
# UniProt Q01459: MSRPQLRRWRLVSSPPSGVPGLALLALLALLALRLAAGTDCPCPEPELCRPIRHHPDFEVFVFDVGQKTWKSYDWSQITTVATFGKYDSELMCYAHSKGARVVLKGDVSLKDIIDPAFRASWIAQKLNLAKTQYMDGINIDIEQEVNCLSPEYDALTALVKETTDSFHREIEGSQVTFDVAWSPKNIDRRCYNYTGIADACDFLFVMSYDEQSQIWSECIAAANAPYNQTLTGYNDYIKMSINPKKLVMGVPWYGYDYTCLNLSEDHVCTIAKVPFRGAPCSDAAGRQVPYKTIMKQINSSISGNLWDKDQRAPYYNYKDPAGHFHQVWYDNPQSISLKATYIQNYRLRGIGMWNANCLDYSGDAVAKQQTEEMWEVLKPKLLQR
# UniProt Q96C57: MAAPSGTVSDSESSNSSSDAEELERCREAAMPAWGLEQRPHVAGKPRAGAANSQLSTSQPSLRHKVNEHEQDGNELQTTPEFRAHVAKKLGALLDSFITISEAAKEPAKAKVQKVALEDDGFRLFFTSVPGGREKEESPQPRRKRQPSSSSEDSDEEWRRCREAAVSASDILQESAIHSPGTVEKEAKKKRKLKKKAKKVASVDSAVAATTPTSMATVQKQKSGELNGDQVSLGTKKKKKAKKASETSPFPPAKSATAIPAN
# UniProt Q9BWK5: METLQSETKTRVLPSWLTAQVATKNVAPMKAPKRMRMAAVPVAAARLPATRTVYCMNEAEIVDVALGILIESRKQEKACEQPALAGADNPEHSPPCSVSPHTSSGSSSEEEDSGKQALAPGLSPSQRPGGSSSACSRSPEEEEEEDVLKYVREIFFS
# UniProt P50461: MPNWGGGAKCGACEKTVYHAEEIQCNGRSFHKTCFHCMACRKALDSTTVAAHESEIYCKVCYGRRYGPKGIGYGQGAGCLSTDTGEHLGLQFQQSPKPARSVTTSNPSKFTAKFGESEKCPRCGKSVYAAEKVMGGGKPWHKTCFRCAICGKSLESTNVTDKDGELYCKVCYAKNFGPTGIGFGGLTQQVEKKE
# UniProt O60911: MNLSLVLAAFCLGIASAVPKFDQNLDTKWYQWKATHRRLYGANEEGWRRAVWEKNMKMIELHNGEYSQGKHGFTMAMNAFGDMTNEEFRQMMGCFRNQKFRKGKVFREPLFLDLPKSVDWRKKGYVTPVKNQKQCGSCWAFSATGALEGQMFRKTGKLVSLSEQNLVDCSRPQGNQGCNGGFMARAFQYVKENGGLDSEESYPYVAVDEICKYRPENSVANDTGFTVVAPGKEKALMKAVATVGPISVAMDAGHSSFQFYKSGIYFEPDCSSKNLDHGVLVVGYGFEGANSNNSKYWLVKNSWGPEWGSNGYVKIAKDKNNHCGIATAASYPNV
# UniProt P32321: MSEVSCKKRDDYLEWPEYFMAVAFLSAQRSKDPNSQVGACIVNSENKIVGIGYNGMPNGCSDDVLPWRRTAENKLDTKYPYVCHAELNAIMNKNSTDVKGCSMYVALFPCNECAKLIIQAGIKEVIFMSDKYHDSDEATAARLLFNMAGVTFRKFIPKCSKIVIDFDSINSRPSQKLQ
# UniProt Q07973: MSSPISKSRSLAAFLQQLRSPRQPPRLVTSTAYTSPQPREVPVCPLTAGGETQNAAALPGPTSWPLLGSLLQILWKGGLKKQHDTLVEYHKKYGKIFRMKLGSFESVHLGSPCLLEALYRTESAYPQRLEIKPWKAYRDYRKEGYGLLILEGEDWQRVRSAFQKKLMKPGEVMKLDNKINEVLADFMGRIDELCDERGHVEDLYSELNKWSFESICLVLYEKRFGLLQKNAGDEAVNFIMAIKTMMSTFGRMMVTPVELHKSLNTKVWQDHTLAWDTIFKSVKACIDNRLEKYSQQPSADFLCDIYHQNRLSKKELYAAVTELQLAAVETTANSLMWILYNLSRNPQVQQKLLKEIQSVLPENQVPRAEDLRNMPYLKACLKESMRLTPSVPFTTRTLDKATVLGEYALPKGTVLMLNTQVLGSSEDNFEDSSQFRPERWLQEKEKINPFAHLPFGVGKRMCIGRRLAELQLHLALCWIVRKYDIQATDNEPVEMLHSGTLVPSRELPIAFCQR
# UniProt Q7Z7A3: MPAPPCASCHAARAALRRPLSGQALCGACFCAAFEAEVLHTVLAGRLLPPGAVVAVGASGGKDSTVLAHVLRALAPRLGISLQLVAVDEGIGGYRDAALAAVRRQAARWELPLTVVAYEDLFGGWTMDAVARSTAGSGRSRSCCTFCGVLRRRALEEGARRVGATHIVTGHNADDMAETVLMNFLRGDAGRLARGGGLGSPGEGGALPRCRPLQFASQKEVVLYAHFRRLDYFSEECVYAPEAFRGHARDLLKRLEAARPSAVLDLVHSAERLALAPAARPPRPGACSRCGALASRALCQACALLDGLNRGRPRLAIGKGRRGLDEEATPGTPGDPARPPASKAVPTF
# UniProt Q12996: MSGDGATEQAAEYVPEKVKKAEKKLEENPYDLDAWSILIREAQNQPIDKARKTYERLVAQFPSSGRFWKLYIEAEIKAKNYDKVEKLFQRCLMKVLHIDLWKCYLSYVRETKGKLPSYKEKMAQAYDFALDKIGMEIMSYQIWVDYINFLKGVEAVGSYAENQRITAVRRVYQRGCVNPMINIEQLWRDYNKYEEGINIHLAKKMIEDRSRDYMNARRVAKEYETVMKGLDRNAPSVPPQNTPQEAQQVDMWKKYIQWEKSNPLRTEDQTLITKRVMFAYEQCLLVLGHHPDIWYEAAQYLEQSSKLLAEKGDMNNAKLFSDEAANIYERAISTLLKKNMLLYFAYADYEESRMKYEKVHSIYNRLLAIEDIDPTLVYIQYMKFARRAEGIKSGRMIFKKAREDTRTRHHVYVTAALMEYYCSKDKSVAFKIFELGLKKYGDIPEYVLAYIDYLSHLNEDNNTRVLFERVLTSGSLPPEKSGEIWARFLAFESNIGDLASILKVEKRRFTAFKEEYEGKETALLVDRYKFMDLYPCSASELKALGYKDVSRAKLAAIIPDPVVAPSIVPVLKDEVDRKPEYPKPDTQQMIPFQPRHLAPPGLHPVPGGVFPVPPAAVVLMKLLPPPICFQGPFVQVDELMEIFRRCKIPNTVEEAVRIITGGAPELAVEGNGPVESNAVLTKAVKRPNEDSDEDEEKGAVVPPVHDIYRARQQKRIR
# UniProt Q86T65: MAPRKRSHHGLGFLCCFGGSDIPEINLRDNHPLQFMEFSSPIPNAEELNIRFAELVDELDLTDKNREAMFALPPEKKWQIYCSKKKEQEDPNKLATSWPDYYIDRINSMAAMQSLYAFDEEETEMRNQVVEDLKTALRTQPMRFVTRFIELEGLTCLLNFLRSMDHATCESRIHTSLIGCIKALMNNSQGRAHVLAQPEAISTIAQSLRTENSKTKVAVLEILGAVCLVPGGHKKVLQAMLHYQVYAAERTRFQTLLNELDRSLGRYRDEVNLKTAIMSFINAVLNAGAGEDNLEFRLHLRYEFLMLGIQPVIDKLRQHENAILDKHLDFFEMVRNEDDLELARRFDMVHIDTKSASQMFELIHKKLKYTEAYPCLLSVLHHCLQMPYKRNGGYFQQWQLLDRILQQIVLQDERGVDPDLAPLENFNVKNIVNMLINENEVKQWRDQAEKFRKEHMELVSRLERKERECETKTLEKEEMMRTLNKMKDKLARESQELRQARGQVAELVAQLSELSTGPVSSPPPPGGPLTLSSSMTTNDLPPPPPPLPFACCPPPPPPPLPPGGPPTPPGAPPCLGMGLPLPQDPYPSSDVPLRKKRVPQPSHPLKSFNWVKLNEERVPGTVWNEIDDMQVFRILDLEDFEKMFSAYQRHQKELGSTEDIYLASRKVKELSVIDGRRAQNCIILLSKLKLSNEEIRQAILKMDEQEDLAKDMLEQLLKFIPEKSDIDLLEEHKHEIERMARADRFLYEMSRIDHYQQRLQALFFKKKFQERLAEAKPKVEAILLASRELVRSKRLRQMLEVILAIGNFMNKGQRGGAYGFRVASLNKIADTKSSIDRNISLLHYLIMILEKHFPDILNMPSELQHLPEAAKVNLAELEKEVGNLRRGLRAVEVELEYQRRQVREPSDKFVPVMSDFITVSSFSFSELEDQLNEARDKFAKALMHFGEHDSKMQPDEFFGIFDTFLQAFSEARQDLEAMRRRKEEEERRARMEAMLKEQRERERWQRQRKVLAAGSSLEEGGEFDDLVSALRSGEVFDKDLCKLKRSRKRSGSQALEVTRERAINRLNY
# Some of the results follow.
# Columns and labels:
# Assay in all cases: log2 fold change, soluble protein after heating vs DMSO (PISA); higher = thermal stabilisation; K562 cells, 10 uM, 30 min; active = over 0.2 and 3.5 SD of the protein, either way, in both replicates (recomputed)
# [1] = compound: Cc1ccc(NC(=O)c2ccc(CN3CC[C@H](N(C)C)C3)c(C(F)(F)F)c2)cc1Nc1nccc(-c2cncnc2)n1 [bafetinib]
# In short: (§1)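 K562 cells at 2×10^6 cells/mL were exposed to 10 μM compound for 30 min, then aliquots were heated for 3 min across 48°C-58°C, pooled, and extracted in PBS containing 0.5% NP-40 at 4°C. The supernatant after 21,000xg for 90 min was taken as soluble protein and measured by TMTpro 16plex LC-MS/MS with channel sums equalised. Thermal stability is reported relative to control samples, with values from duplicates. Fold changes are given on a log2 scale.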
# [2] = compound: Cc1cccc(CC(=O)N2CCc3c2ccc(-c2cn(C)c4ncnc(N)c24)c3F)n1
# In short: as §1
# [3] = compound: Cc1cn(-c2cc(NC(=O)c3ccc(C)c(Nc4nccc(-c5cccnc5)n4)c3)cc(C(F)(F)F)c2)cn1 [nilotinib]
# In short: as §1
# [4] = compound: Cc1nc(Nc2n[nH]c3c2CN(C(=O)N[C@H](CN(C)C)c2ccccc2)C3(C)C)c2sccc2n1
# In short: as §1
# [5] = compound: Cc1nc(Nc2ncc(C(=O)Nc3c(C)cccc3Cl)s2)cc(N2CCN(CCO)CC2)n1 [dasatinib]
# In short: as §1
# [6] = compound: Cc1ncc(-c2ccnc(Nc3ccc(S(C)(=O)=O)cc3)n2)n1C(C)C
# In short: as §1
# [7] = compound: Cn1cc(-c2ccc3nnc(C(F)(F)c4ccc5ncccc5c4)n3n2)cn1
# In short: as §1
# [8] = compound: Cn1cncc1[C@@](N)(c1ccc(Cl)cc1)c1ccc2c(c1)c(-c1cccc(Cl)c1)cc(=O)n2C [tipifarnib]
# In short: as §1
# [9] = compound: FC(F)(F)c1ccc(/C=C/c2nc(COc3ccc(CCCCn4ccnn4)cc3)co2)cc1 [mubritinib]
# In short: as §1
# [10] = compound: NC(=O)Nc1cc(-c2cccc(F)c2)sc1C(=O)N[C@H]1CCCNC1
# In short: as §1
# [11] = compound: NC(=O)c1cnc(N[C@@H]2CCCC[C@@H]2N)nc1Nc1cccc(-n2nccn2)c1
# In short: as §1
# [12] = compound: NC1(c2ccc(-c3nc4ccn5c(=O)[nH]nc5c4cc3-c3ccccc3)cc2)CCC1
# In short: as §1
# [13] = compound: NCC(=O)Nc1ccc(-n2nc(C(F)(F)F)cc2-c2ccc3c(ccc4ccccc43)c2)cc1
# In short: as §1
# [14] = compound: Nc1ccccc1NC(=O)c1ccc(CNC(=O)OCc2cccnc2)cc1 [entinostat]
# In short: as §1
# [15] = compound: O=C(CCCCCCC(=O)Nc1ccccc1)NO [vorinostat]
# In short: as §1
# [16] = compound: O=C(CCCCCCNC(=O)c1cnc(N(c2ccccc2)c2ccccc2Cl)nc1)NO [citarinostat]
# In short: as §1
# [17] = compound: O=C(O)c1ccc2c(c1)nc(Nc1cccc(Cl)c1)c1ccncc12 [silmitasertib]
# In short: as §1
# [18] = compound: O=C1NC(=O)C(c2cnc3ccccn23)=C1c1cn2c3c(cc(F)cc13)CN(C(=O)N1CCCCC1)CC2
# In short: as §1
# [19] = compound: c1cc(OCCN2CCCCC2)cc(-c2n[nH]c3ccc(-c4nnc[nH]4)cc23)c1
# In short: as §1
# [20] = compound: Cn1cc(-c2ccc3c(c2)CCN3C(=O)Cc2cccc(C(F)(F)F)c2)c2c(N)ncnc21
# In short: as §1
Target,log2 fold change [1],log2 fold change [2],log2 fold change [3],log2 fold change [4],log2 fold change [5],log2 fold change [6],log2 fold change [7],log2 fold change [8],log2 fold change [9],log2 fold change [10],log2 fold change [11],log2 fold change [12],log2 fold change [13],log2 fold change [14],log2 fold change [15],log2 fold change [16],log2 fold change [17],log2 fold change [18],log2 fold change [19],log2 fold change [20]
CYB5A (UniProt P00167),inactive: -0.047,inactive: -0.037,inactive: 0.004,inactive: -0.024,inactive: -0.05,inactive: 0.022,inactive: 0.215,inactive: 0.042,inactive: 0.021,inactive: 0.023,inactive: 0.141,inactive: -0.023,inactive: 0.03,inactive: 0.041,inactive: -0.034,inactive: -0.007,inactive: 0.015,inactive: -0.117,inactive: -0.017,
CYP2R1 (UniProt Q6VVX0),inactive: 0.049,,inactive: -0.069,inactive: -0.022,,inactive: 0.011,,,,,,,,,,inactive: -0.162,,,inactive: -0.032,inactive: 0.191
CWC25 (UniProt Q9NXE8),inactive: 0.401,inactive: 0.111,inactive: 0.062,inactive: -0.135,,inactive: 0.113,inactive: -0.092,,inactive: -0.103,inactive: 0.024,inactive: 0.124,inactive: 0.187,,inactive: -0.096,inactive: -0.099,inactive: 0.19,inactive: 0.188,inactive: 0.212,inactive: -0.262,inactive: -0.301
CYP46A1 (UniProt Q9Y6A2),inactive: -0.238,inactive: -0.261,,,inactive: 0.075,,inactive: 0.212,inactive: 0.198,inactive: 0.084,inactive: -0.262,inactive: -0.242,inactive: -0.139,inactive: -0.289,inactive: -0.028,inactive: -0.189,,inactive: 0.01,,,inactive: -0.129
CST4 (UniProt P01036),inactive: 0.138,,inactive: -0.306,inactive: 0.158,,inactive: 0.114,,,inactive: 0.584,inactive: 0.164,,inactive: 0.107,inactive: 0.017,inactive: -0.437,,,inactive: -0.058,,,inactive: 0.072
CYSTM1 (UniProt Q9H1C7),inactive: -0.222,,inactive: 0.029,inactive: -0.04,inactive: 0.036,inactive: -0.007,inactive: -0.027,inactive: 0.292,inactive: 0.113,inactive: 0.013,inactive: 0.187,inactive: -0.029,inactive: -0.006,inactive: 0.051,,inactive: 0.231,inactive: -0.092,,inactive: -0.027,inactive: 0.052
DCTN5 (UniProt Q9BTE1),inactive: -0.035,inactive: -0.019,inactive: -0.012,inactive: 0.032,inactive: -0.027,inactive: -0.03,inactive: -0.004,inactive: 0.02,inactive: 0.015,inactive: -0.001,inactive: 0.009,inactive: -0.037,inactive: -0.004,inactive: -0.074,inactive: 0.003,inactive: 0.03,inactive: 0.003,,inactive: -0.056,inactive: -0.013
DCPS (UniProt Q96C86),inactive: -0.069,inactive: -0.002,inactive: 0.005,inactive: -0.016,inactive: 0.002,inactive: 0.015,inactive: 0.036,inactive: 0.006,inactive: 0.031,inactive: -0.037,inactive: 0.001,inactive: -0.027,inactive: 0.068,inactive: -0.038,inactive: -0.035,inactive: -0.011,inactive: -0.025,inactive: -0.04,inactive: -0.014,inactive: -0.01
CTBS (UniProt Q01459),active: -0.483,inactive: -0.069,inactive: 0.016,inactive: -0.007,inactive: -0.006,inactive: -0.077,inactive: 0.162,inactive: 0.091,inactive: 0.025,inactive: 0.088,inactive: -0.046,inactive: -0.268,inactive: -0.002,inactive: 0.058,inactive: -0.017,inactive: -0.026,inactive: -0.003,inactive: 0.051,inactive: -0.023,inactive: -0.093
CUSTOS (UniProt Q96C57),inactive: -0.057,inactive: -0.062,inactive: 0.026,inactive: -0.009,inactive: 0.027,inactive: 0.001,inactive: 0.004,inactive: 0.028,inactive: 0.015,inactive: 0.064,inactive: -0.006,inactive: 0.023,inactive: 0.016,inactive: -0.012,inactive: -0.014,inactive: 0.027,inactive: -0.004,inactive: 0.035,inactive: -0.027,inactive: 0.039
CYREN isoform 4 (UniProt Q9BWK5),inactive: 0.026,inactive: -0.076,,,inactive: 0.18,,,inactive: 0.054,inactive: -0.064,,inactive: -0.106,inactive: -0.095,inactive: 0.013,,inactive: -0.116,,inactive: 0.001,,,
CSRP3 (UniProt P50461),inactive: -0.156,inactive: -0.032,inactive: 0.012,inactive: -0.055,,inactive: -0.044,inactive: 0.032,inactive: -0.012,inactive: 0.035,inactive: -0.033,inactive: -0.063,inactive: 0.008,inactive: 0.012,inactive: -0.028,inactive: -0.041,inactive: 0,inactive: 0.088,,inactive: -0.013,inactive: 0.009
CTSV (UniProt O60911),active: -0.696,inactive: -0.24,inactive: 0.036,inactive: 0.142,inactive: 0.061,inactive: -0.056,inactive: -0.002,inactive: 0.026,inactive: -0.009,inactive: 0,inactive: -0.066,inactive: -0.296,inactive: -0.052,inactive: -0.063,inactive: -0.029,inactive: -0.008,inactive: 0.027,inactive: -0.105,inactive: 0.165,inactive: 0.016
DCTD isoform 2 (UniProt P32321),inactive: -0.057,inactive: -0.012,inactive: -0.02,inactive: 0.007,inactive: 0.002,inactive: 0.002,inactive: -0.016,inactive: -0.032,inactive: 0.058,inactive: 0.012,inactive: -0.02,inactive: -0.055,inactive: 0.046,inactive: -0.005,inactive: 0.003,inactive: -0.001,inactive: -0.031,inactive: -0.017,inactive: -0.063,inactive: 0.029
CYP24A1 (UniProt Q07973),inactive: 0.373,inactive: -0.049,inactive: 0.01,inactive: 0.167,inactive: 0.184,inactive: -0.105,inactive: -0.057,inactive: 0.101,inactive: -0.074,,inactive: 0.045,inactive: 0.43,inactive: 0.21,,inactive: 0.067,inactive: -0.002,inactive: 0.099,,inactive: 0.109,
CYP2S1 isoform 2 (UniProt Q96SQ9),inactive: 0.166,inactive: 0.137,,,inactive: 0.137,,inactive: -0.034,,inactive: 0.206,inactive: -0.064,inactive: -0.088,inactive: 0.371,,inactive: -0.183,inactive: 0.375,,inactive: 0.166,,,inactive: 0.103
CTU1 (UniProt Q7Z7A3),inactive: -0.024,inactive: 0.067,inactive: -0.062,inactive: -0.03,inactive: -0.145,inactive: -0.03,inactive: 0.02,inactive: -0.043,inactive: 0.067,inactive: 0.038,inactive: -0.015,inactive: -0.199,inactive: -0.142,inactive: 0.023,inactive: 0.075,inactive: 0.049,inactive: 0.021,inactive: 0,inactive: 0.008,inactive: 0.035
CSTF3 (UniProt Q12996),inactive: -0.004,inactive: 0.044,inactive: -0.044,inactive: 0.176,inactive: -0.021,inactive: 0.158,inactive: -0.01,inactive: 0.009,inactive: 0.019,inactive: 0.011,inactive: -0.027,inactive: -0.046,inactive: -0.032,inactive: -0.032,inactive: -0.032,inactive: -0.021,inactive: 0.029,inactive: 0.027,inactive: 0.012,inactive: -0.009
DAAM2 (UniProt Q86T65),inactive: -0.145,,inactive: -0.063,inactive: -0.054,inactive: -0.023,inactive: 0.039,inactive: 0.025,,,,,,,,,,,inactive: 0.149,,

# Part of the list above, with tabs.
Target	log2 fold change [1]	log2 fold change [2]	log2 fold change [3]	log2 fold change [4]	log2 fold change [5]	log2 fold change [6]	log2 fold change [7]	log2 fold change [8]	log2 fold change [9]	log2 fold change [10]	log2 fold change [11]	log2 fold change [12]	log2 fold change [13]	log2 fold change [14]	log2 fold change [15]	log2 fold change [16]	log2 fold change [17]	log2 fold change [18]	log2 fold change [19]	log2 fold change [20]
CYP46A1 (UniProt Q9Y6A2)	inactive: -0.238	inactive: -0.261			inactive: 0.075		inactive: 0.212	inactive: 0.198	inactive: 0.084	inactive: -0.262	inactive: -0.242	inactive: -0.139	inactive: -0.289	inactive: -0.028	inactive: -0.189		inactive: 0.01			inactive: -0.129
CST4 (UniProt P01036)	inactive: 0.138		inactive: -0.306	inactive: 0.158		inactive: 0.114			inactive: 0.584	inactive: 0.164		inactive: 0.107	inactive: 0.017	inactive: -0.437			inactive: -0.058			inactive: 0.072
